{"source": "PubChem BioAssay AID1259308 (NCATS, 2017)", "screen": "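Genes whose loss raises luciferase production in HEK293 cells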 (primary screen)", "cells": "human HEK293 embryonic kidney cells stably expressing firefly luciferase (HEK-CMV-Luc2-Hygro)", "reagents": "single siRNA against human genes, 0.8 pmol siRNA per well", "time to read-out": "72 h", "measurement": "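Luciferase light (ONE-Glo) measured on one replicate plate set and viability (CellTiter-Glo) on the other, scaled to a negative control siRNA, with robust z-scores and luciferase per cell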", "reading the numbers": "total luciferase, z-score and total luciferase, % of control: higher = more reporter protein produced", "call rule": "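Active when the median/MAD z-score for overall luciferase is greater than 3; a gene was taken forward for validation with new siRNAs if at least two of its three siRNAs passed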", "calls": "active = raised luciferase; inactive = no rise", "note": "Here is a random part of about 59,000 reagents tested. Of all reagents, about 1,510 (2.6%) are marked active. 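Calls use total luciferase alone and ignore viability, so some active siRNAs may act by altering cell number.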 Entries without a mark were called inactive. The numbers tell different reagents against one gene apart. Not all columns of the deposit are shown. No sequences are given here."}
{"gene knocked down": "SUN2", "reagent no.": 1, "total luciferase, z-score": 1.82, "total luciferase, % of control": 118}
{"gene knocked down": "SUN2", "reagent no.": 2, "total luciferase, z-score": -0.488, "total luciferase, % of control": 72.2}
{"gene knocked down": "SUN2", "reagent no.": 3, "total luciferase, z-score": -0.0637, "total luciferase, % of control": 80.6}
{"gene knocked down": "BRF1", "reagent no.": 1, "total luciferase, z-score": -2.43, "total luciferase, % of control": 33.5}
{"gene knocked down": "BRF1", "reagent no.": 2, "total luciferase, z-score": 0.266, "total luciferase, % of control": 87.2}
{"gene knocked down": "BRF1", "reagent no.": 3, "total luciferase, z-score": -0.0808, "total luciferase, % of control": 80.3}
{"gene knocked down": "TAB1", "reagent no.": 1, "total luciferase, z-score": -0.106, "total luciferase, % of control": 79.8}
{"gene knocked down": "TAB1", "reagent no.": 2, "total luciferase, z-score": 0.5, "total luciferase, % of control": 91.8}
{"gene knocked down": "TAB1", "reagent no.": 3, "total luciferase, z-score": -1.26, "total luciferase, % of control": 56.8}
{"gene knocked down": "C4orf54", "reagent no.": 1, "total luciferase, z-score": 0.272, "total luciferase, % of control": 87.3}
{"gene knocked down": "C4orf54", "reagent no.": 2, "total luciferase, z-score": "3.02 (active)", "total luciferase, % of control": 142}
{"gene knocked down": "C4orf54", "reagent no.": 3, "total luciferase, z-score": -0.0144, "total luciferase, % of control": 81.6}
{"gene knocked down": "ZNF319", "reagent no.": 1, "total luciferase, z-score": 0.396, "total luciferase, % of control": 89.8}
{"gene knocked down": "ZNF319", "reagent no.": 2, "total luciferase, z-score": 0.075, "total luciferase, % of control": 83.4}
{"gene knocked down": "ZNF319", "reagent no.": 3, "total luciferase, z-score": -0.923, "total luciferase, % of control": 63.5}
{"gene knocked down": "KNSTRN", "reagent no.": 1, "total luciferase, z-score": 0.42, "total luciferase, % of control": 90.2}
{"gene knocked down": "KNSTRN", "reagent no.": 2, "total luciferase, z-score": 0.677, "total luciferase, % of control": 95.3}
{"gene knocked down": "KNSTRN", "reagent no.": 3, "total luciferase, z-score": -0.642, "total luciferase, % of control": 69.1}
{"gene knocked down": "CH25H", "reagent no.": 1, "total luciferase, z-score": 1.54, "total luciferase, % of control": 113}
{"gene knocked down": "CH25H", "reagent no.": 2, "total luciferase, z-score": 0.341, "total luciferase, % of control": 88.7}
{"gene knocked down": "CH25H", "reagent no.": 3, "total luciferase, z-score": 1.86, "total luciferase, % of control": 119}
{"gene knocked down": "PPP2R3B", "reagent no.": 1, "total luciferase, z-score": "3.8 (active)", "total luciferase, % of control": 157}
{"gene knocked down": "PPP2R3B", "reagent no.": 2, "total luciferase, z-score": -0.918, "total luciferase, % of control": 63.6}
{"gene knocked down": "PPP2R3B", "reagent no.": 3, "total luciferase, z-score": -0.839, "total luciferase, % of control": 65.2}
{"gene knocked down": "FOXD4L4", "reagent no.": 1, "total luciferase, z-score": -0.182, "total luciferase, % of control": 78.3}
{"gene knocked down": "FOXD4L4", "reagent no.": 2, "total luciferase, z-score": -1.07, "total luciferase, % of control": 60.7}
{"gene knocked down": "FOXD4L4", "reagent no.": 3, "total luciferase, z-score": -0.021, "total luciferase, % of control": 81.5}

Taken from above:
Entry of ZNF319 #2 in “total luciferase, z-score”: 0.075
TAB1 #2, total luciferase, z-score: 0.5
Entry of PPP2R3B #3 under “total luciferase, z-score”: -0.839

More records follow.
{"gene knocked down": "GPR141", "reagent no.": 1, "total luciferase, z-score": 1.55, "total luciferase, % of control": 113}
{"gene knocked down": "GPR141", "reagent no.": 2, "total luciferase, z-score": -0.719, "total luciferase, % of control": 67.6}
{"gene knocked down": "GPR141", "reagent no.": 3, "total luciferase, z-score": -0.954, "total luciferase, % of control": 62.9}
{"gene knocked down": "TTC39C", "reagent no.": 1, "total luciferase, z-score": 0.131, "total luciferase, % of control": 84.5}
{"gene knocked down": "TTC39C", "reagent no.": 2, "total luciferase, z-score": 0.0665, "total luciferase, % of control": 83.2}
{"gene knocked down": "TTC39C", "reagent no.": 3, "total luciferase, z-score": -0.849, "total luciferase, % of control": 65}
{"gene knocked down": "UCA1", "reagent no.": 1, "total luciferase, z-score": 0.369, "total luciferase, % of control": 89.2}
{"gene knocked down": "UCA1", "reagent no.": 2, "total luciferase, z-score": 0.568, "total luciferase, % of control": 93.2}
{"gene knocked down": "UCA1", "reagent no.": 3, "total luciferase, z-score": 1.27, "total luciferase, % of control": 107}
{"gene knocked down": "TSSK1B", "reagent no.": 1, "total luciferase, z-score": -0.37, "total luciferase, % of control": 74.5}
{"gene knocked down": "TSSK1B", "reagent no.": 2, "total luciferase, z-score": 1.82, "total luciferase, % of control": 118}
{"gene knocked down": "TSSK1B", "reagent no.": 3, "total luciferase, z-score": 0.0731, "total luciferase, % of control": 83.3}
{"gene knocked down": "DTNB", "reagent no.": 1, "total luciferase, z-score": -0.0207, "total luciferase, % of control": 81.5}
{"gene knocked down": "DTNB", "reagent no.": 2, "total luciferase, z-score": -0.902, "total luciferase, % of control": 64}
{"gene knocked down": "DTNB", "reagent no.": 3, "total luciferase, z-score": 0.495, "total luciferase, % of control": 91.7}
